The source of these data is PubChem BioAssay AID2685 (National Center for Advancing Translational Sciences (NCATS), 2010).

This assay in a line: qHTS Assay for Lipid Storage Modulators in Drosophila S3 Cells.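 On cell number change: cells counted by Cell Tracker Red CMTPX staining in the red channel.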 The settings on record: BODIPY lipid droplet fluorescence, 18-24 h; for cell number change: measured here: cell count max response, cells fed with added oleic acid. An outline of the steps: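 Drosophila S3 cells loaded with oleic acid (400 uM, as added) and compounds at several concentrations; lipid droplets imaged by 488-nm laser-scanning cytometry, 500–530 nm intensity and object ratio to cell channel. Percent activity normalized to 20 uM Triacsin C.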

The mark [1] stands for this setting: measured here: cell number channel AC50, cells fed with added oleic acid.
The mark [2] stands for this setting: measured here: lipid fluorescence (Fed channel) AC50, cells fed with added oleic acid.

Some of the results follow. Shown are side measurements of this screen, not its main read-out; they come without a call. Compounds called inactive in the main read-out are mostly missing here. Words in brackets tell the shape of the fitted curve; partial curves, single points and poor fits give uncertain potencies.

For `c1ccc(CN(Cc2ccccc2)c2nn[nH]n2)cc1`, the AC50 runs as follows: under setting [1], 0.116 µM [rising, full curve, poor fit]; under setting [2], 0.103 µM [rising, full curve, poor fit].
Consider `Cn1c(=O)c2c(nc(SCC(=O)NC3CCCC3)n2C)n(C)c1=O`, for which the cell number change is -20.6%. Besides, the AC50 under setting [2] was 0.231 µM [rising, partial curve, poor fit].
As for `Cc1ccc(S(=O)(=O)NCc2ccccc2)cc1C(=O)NCC(C)(C)N1CCOCC1`, under setting [2], the half-maximal activity concentration (AC50) is 0.291 µM [falling, partial curve, poor fit].
In the case of `Cc1ccc(NC(=O)CN(C)C(=O)COC(=O)c2nccnc2N)cc1`, the cell number change amounted to 36.2%. Also, the AC50 under setting [1] was 29.1 µM [rising, single point].
`Clc1ccc2c(c1)c1cc(Cl)ccc1n2CN1CCOCC1`: the cell number change was -72.1%. The AC50 under setting [1] is 25.9 µM [falling, partial curve, poor fit]. The AC50 under setting [2] is 25.9 µM [falling, partial curve].
Turning to `O=C(COc1cccc2cccnc12)N/N=C1\SCC(=O)N1Cc1ccccc1`, the AC50 by setting is: under setting [1], 2.31 µM [rising, partial curve]; under setting [2], 3.66 µM [rising, full curve].
With `CCOC(=O)c1c(NC(=O)c2ccc(Cl)s2)sc(C)c1C`, the AC50 under setting [1] is 0.231 µM [rising, partial curve, poor fit].
Consider `Cc1ccc(C(=O)O)c(C(=O)Nc2nc(C)cs2)c1`, for which the cell number change was -8.11%. The AC50 under setting [1] was 0.0146 µM [falling, full curve]. Moreover, under setting [2], the AC50 is 0.146 µM [falling, full curve, poor fit].
On to `CCCCOc1ccc(NC(=O)CCSc2nccn2C)cc1`, for which the cell number change was found to be 25.9%. Also, the AC50 under setting [2] is 1.16 µM [rising, full curve, poor fit].
As for `Cn1[nH]c(-c2ccccc2)c(/C=N/O)c1=O`, the cell number change amounted to 7.74%. Further, the AC50 under setting [2] is 0.731 µM [rising, partial curve, poor fit].
As to `CCOC(=O)CN1C(=O)C(Sc2n[nH]c(-c3cccc(C)c3)n2)CCc2ccccc21` (stereo unspecified), the cell number change is -13.5%. The AC50 under setting [2] was 16.4 µM [falling, single point].
Turning to `CCN(CC)C(=O)CCCc1c[nH]c2ccccc12`, the cell number change was -52.6%. Moreover, the AC50 under setting [1] was 1.84 µM [falling, partial curve].
With `COc1cccc(OC)c1C(=O)NCCN1CCN(C(=O)c2c(OC)cccc2OC)CC1`, the cell number change is -4.23%. For the same molecule, under setting [2], the AC50 is 0.103 µM [falling, full curve, poor fit].
For the molecule `CCOC(=O)CNC(=O)CSc1nccn1Cc1ccco1`, the cell number change is 10.8%.
Consider `CC1CN(c2ccc([N+](=O)[O-])c(NCCOc3ccc(Cl)cc3)c2)CC(C)N1` (stereo unspecified), for which the cell number change is -24.7%. Also, the AC50 under setting [2] is 29.1 µM [rising, single point].
For the molecule `C=CCn1c(C)c(C(=O)OCC)c2cc(O)c3ccccc3c21`, the cell number change is 0.709%. Moreover, the AC50 under setting [2] was 3.66 µM [falling, full curve, poor fit].
Consider `COCCCNC(=O)c1ccc(Cn2c(=O)c3ccccc3n(CC(=O)NCCc3ccc(OC)c(OC)c3)c2=O)cc1`, for which the cell number change is -3.76%. Further, the AC50 under setting [1] was 0.461 µM [falling, full curve, poor fit].
In the case of `COc1cc(OC)nc(-n2ncc(Br)c(Br)c2=O)n1`, the cell number change is -81.1%. The AC50 under setting [1] is 14.6 µM [falling, partial curve]. For the same molecule, the AC50 under setting [2] is 5.8 µM [falling, partial curve].
Consider `COc1ccccc1Nc1nc(-c2cccc([N+](=O)[O-])c2)cs1`, for which the cell number change amounted to 4.21%. Also, the AC50 under setting [1] was 3.66 µM [rising, single point]. In addition, under setting [2], the AC50 was 29.1 µM [rising, single point].
With `CNC(=O)C1(C)C=CCN1C(=O)c1ccccc1` (stereo unspecified), the cell number change was -15.8%. Besides, under setting [2], the AC50 was 0.82 µM [falling, full curve, poor fit].
For `COC(=O)CSc1nc2c(c(=O)n(C)c(=O)n2C)n1CCC(C)C`, the cell number change is -55.1%. Besides, the AC50 under setting [1] is 29.1 µM [falling, single point]. Besides, the AC50 under setting [2] is 29.1 µM [falling, single point].
Regarding `O=C(CNC(=O)c1ccc(Br)cc1)NC1=NCCS1`, the cell number change is -10.5%. In addition, the AC50 under setting [2] was 0.13 µM [falling, partial curve, poor fit].
As for `CCCN1C=CC(=C/C=C(\C#N)C(=O)OCC)C=C1`, the cell number change is -76.3%. The AC50 under setting [1] was 29.1 µM [falling, single point]. Besides, the AC50 under setting [2] is 29.1 µM [falling, single point].
For `CN1CCCCCC1=NC1=C(C#N)CCCC1`, the cell number change is -32.6%. In addition, the concentration at half-maximal activity (AC50) under setting [1] was 4.11 µM [falling, full curve]. For the same molecule, the AC50 under setting [2] is 9.2 µM [falling, partial curve].
Take `CCc1nnc(NC(=O)CSc2nnc(CNc3ccc(Cl)cc3)o2)s1`: the cell number change amounted to 12.8%. Under setting [2], the AC50 was 0.82 µM [falling, full curve, poor fit].
On to `CCOC(=O)N1CCC(Nc2c(NCCCN(CC)CC)c(=O)c2=O)CC1`, for which the cell number change is 17.9%. Also, under setting [1], the AC50 is 4.11 µM [rising, partial curve, poor fit]. Further, the AC50 under setting [2] is 0.731 µM [rising, partial curve, poor fit].
For `COC(=O)Cn1cnc2c(C#N)c3n(c2c1=O)CCCC3`, the cell number change came to 24.6%.
For `CCc1ccc(-n2nc3ccc(NC(=O)c4ccc5c(c4)OCO5)cc3n2)cc1`, the cell number change was -37.1%. In addition, under setting [1], the AC50 is 3.66 µM [falling, partial curve]. For the same molecule, the AC50 under setting [2] is 6.51 µM [falling, single point].
For the molecule `COC(=O)c1ccc(S(=O)(=O)N2CCC(C(N)=O)CC2)n1C`, the cell number change was -2.17%. For the same molecule, under setting [2], the AC50 is 0.00461 µM [falling, full curve, poor fit].
Consider `CCCCn1c(N)c(-c2nc3ccccc3s2)c2c([N+](=O)[O-])nn(CC)c(=O)c21`, for which the cell number change is -7.98%. The half-maximal activity concentration (AC50) under setting [1] was 0.0651 µM [rising, full curve, poor fit]. Also, the AC50 under setting [2] is 6.51 µM [rising, single point].
Regarding `C=C(C)[C@@H]1CC=C(CN2CCN(Cc3ccccc3)CC2)CC1`, the cell number change is -57%. For the same molecule, under setting [1], the AC50 is 25.9 µM [falling, single point]. Moreover, the AC50 under setting [2] is 18.4 µM [falling, single point].
Regarding `COc1ccc(Cn2c(=O)[nH]c3cc(C(=O)NC4CCN(Cc5ccccc5)CC4)ccc32)cc1`, the cell number change was -20.9%. The AC50 under setting [2] was 0.231 µM [falling, full curve, poor fit].
For `O=C(Oc1cccc(C(=S)N2CCOCC2)c1)c1ccc([N+](=O)[O-])cc1[N+](=O)[O-]`, the cell number change was -6.25%.
Regarding `CC1Cc2ccccc2N1C(=O)COC(=O)CNC(=O)c1ccc(Br)o1` (stereo unspecified), the cell number change stood at 6.02%. Moreover, the AC50 under setting [2] is 6.51 µM [rising, partial curve, poor fit].
On to `O=C(/C=C/c1cccs1)N1CCN(Cc2ccc3c(c2)OCO3)CC1`, for which the cell number change is -58.5%. The AC50 under setting [1] is 29.1 µM [falling, single point]. Besides, the AC50 under setting [2] is 2.59 µM [rising, partial curve].
Take `COc1ccccc1OCCNC(=O)C(CCSC)NC(=O)COc1ccccc1` (stereo unspecified): the cell number change came to 14.1%. In addition, the AC50 under setting [1] was 0.00461 µM [rising, full curve, poor fit].
`COc1cc2c(cc1OC)C(COc1ccccc1OC)N(C(=O)C(C)C)CC2` (stereo unspecified): the cell number change is -23.4%. The AC50 under setting [2] is 25.9 µM [falling, partial curve].
`Cc1ccc(C(=O)Nc2ccc(S(=O)(=O)Nc3cnc4ccccc4n3)cc2)cc1`: the cell number change is -9.68%. For the same molecule, under setting [2], the AC50 was 29.1 µM [falling, single point].
For the molecule `Cc1nnc(NC(=O)C2CCCN2C(=O)Nc2ccccc2)s1` (stereo unspecified), the cell number change is 12.4%. The AC50 under setting [2] was 3.26 µM [rising, full curve].
Turning to `CC(=O)Nc1ccc(NC(=O)C(C)OC(=O)/C=C/c2cn(-c3ccccc3)nc2-c2cccnc2)cc1` (stereo unspecified), the cell number change is -30.9%. Besides, under setting [2], the AC50 is 29.1 µM [falling, single point].
Take `CS(=O)(=O)c1ccc(Cl)c(C(=O)Nc2ccc3nc(N4CCOCC4)sc3c2)c1`: the cell number change came to 32.5%. Besides, under setting [1], the AC50 was 29.1 µM [rising, single point]. For the same molecule, the AC50 under setting [2] is 23.1 µM [falling, single point].
Take `CC(=O)c1cc(C(=O)NC2CCCc3c2cnn3-c2cc(C)cc(C)c2)[nH]n1` (stereo unspecified): the cell number change is -30.1%. Also, the AC50 under setting [1] was 3.66 µM [falling, full curve]. Moreover, the AC50 under setting [2] is 0.291 µM [falling, full curve].
For the molecule `Cc1nn(Cc2ccccc2)c(C)c1NC(=O)CSc1nc(C2CC2)nc2c1cnn2-c1ccccc1`, the AC50 was 0.411 µM [rising, full curve] under setting [1] and 0.291 µM [rising, full curve] under setting [2].
In the case of `CC(NCc1ccc(-c2ccccc2)cc1)C(O)c1ccccc1` (stereo unspecified), the cell number change was -65.4%. Under setting [1], the AC50 was 29.1 µM [falling, single point].
Consider `COc1cc(C(=O)N2CCc3ccccc32)c([N+](=O)[O-])cc1OC`, for which the cell number change worked out at 22.3%.
As for `COc1cccc(OC)c1-c1nnc(-c2cn(C)c3ccccc23)o1`, the cell number change turned out to be 31.9%. Also, the AC50 under setting [1] was 0.517 µM [rising, full curve, poor fit].
For the molecule `COc1cc2c(cc1NC(=O)c1ccccc1F)CCCC2`, the cell number change was 7.11%. Further, the AC50 under setting [2] was 2.59 µM [rising, partial curve].
Regarding `CCN=C1S/C(=C\c2cn(C(C)=O)nc2-c2ccccc2)C(=O)N1CC`, the cell number change is -19.2%. Moreover, the AC50 under setting [2] is 32.6 µM [falling, single point].
For `CC(=O)c1ccc(OCCCC(=O)OCC(=O)N2CCN(c3ccccc3)CC2)cc1`, the cell number change came out at 13.2%. Moreover, under setting [2], the AC50 is 6.51 µM [rising, single point].
On to `O=C(Nn1c(-c2ccncc2)nc2ccccc2c1=O)c1ccc(Br)cc1`, for which the cell number change is -20.9%. Further, under setting [1], the AC50 was 0.291 µM [falling, full curve, poor fit].
As for `CCOC(=O)Cc1c(Cl)c2ccccc2[nH]c1=O`, the cell number change was -13.1%. The AC50 under setting [1] was 1.16 µM [falling, single point]. Also, the AC50 under setting [2] is 1.46 µM [falling, single point].
With `O=C(NCCCN1CCCC1=O)C(=O)NCC1OCCCN1S(=O)(=O)c1cc(F)ccc1F` (stereo unspecified), the AC50 is 0.164 µM [rising, full curve, poor fit] under setting [1] and 18.4 µM [rising, single point] under setting [2].
For `Cc1ccc(NC(=O)NC(=O)CSc2nnc(-c3ccc(Cl)cc3Cl)n2N)c(C)c1`, the cell number change was -34.4%. The AC50 under setting [1] is 25.9 µM [falling, single point]. In addition, the AC50 under setting [2] was 25.9 µM [falling, single point].
